Experimental data: PubChem BioAssay AID652243 (Drosophila RNAi Screening Center, 2013)
In all, the deposit lists about 24,000 reagents; shown is a random part of those that have a named target and a result. In the full data, 246 (1%) got an active call. 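Plates not normalised; calls are printed but the firefly/Renilla ratio behind them is not deposited; fold cut for lowering reported inconsistently.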 Raw values are not corrected between plates. No sequences are given here. Not stated in the record: the amount of reagent.

Assay: 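Fly regulators of androgen-dependent reporter output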 (primary screen)
Cell system: Drosophila S2R+ cells
Reagent: long dsRNA against Drosophila genes
Duration: 72 h (48 h, then 24 h hormone)
Challenge: synthetic androgen R1881 at 10 nM for 24 h
Read-out: 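Firefly light from an androgen-responsive reporter and Renilla control light per well, raw and unnormalised, for each of two replicates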
Reading the numbers: firefly reporter light: higher = more light from androgen-responsive reporter; Renilla control light: higher = more constitutive control signal (cell number, transfection)
Rule for the call: 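Across duplicate plates, a knock-down whose log firefly/Renilla ratio shifted a set fold down or up from the GFP/LacZ control mean was a hit; the downward cut appears as both 1.5 and 3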
Calls: active = hit: reporter lowered or raised; inactive = no hit

CG6345 (GeneID 41271) [DRSC16024]
- firefly reporter light, replicate 1: 2.73e5
- firefly reporter light, replicate 2: 2.28e5
- Renilla control light, replicate 1: 2.44e6
- Renilla control light, replicate 2: 1.91e6
- call: inactive

CG8958 (GeneID 32575) [DRSC20134]
- firefly reporter light, replicate 1: 6.55e5
- firefly reporter light, replicate 2: 6.21e5
- Renilla control light, replicate 1: 3.66e6
- Renilla control light, replicate 2: 3.43e6
- call: inactive

CG8958 (GeneID 32575) [DRSC29479]
- firefly reporter light, replicate 1: 5.00e5
- firefly reporter light, replicate 2: 5.07e5
- Renilla control light, replicate 1: 1.04e6
- Renilla control light, replicate 2: 1.04e6
- call: inactive

Ufl1 (GeneID 40843) [DRSC12527]
- firefly reporter light, replicate 1: 70816
- firefly reporter light, replicate 2: 1.05e5
- Renilla control light, replicate 1: 6.19e5
- Renilla control light, replicate 2: 5.70e5
- call: inactive

RPA1 (GeneID 40972) [DRSC16830]
- firefly reporter light, replicate 1: 42513
- firefly reporter light, replicate 2: 41507
- Renilla control light, replicate 1: 4.67e5
- Renilla control light, replicate 2: 4.33e5
- call: inactive

Trpm (GeneID 36694) [DRSC06629]
- firefly reporter light, replicate 1: 9.62e5
- firefly reporter light, replicate 2: 1.09e6
- Renilla control light, replicate 1: 2.36e6
- Renilla control light, replicate 2: 2.21e6
- call: inactive

Trpm (GeneID 36694) [DRSC21566]
- firefly reporter light, replicate 1: 6.18e5
- firefly reporter light, replicate 2: 7.33e5
- Renilla control light, replicate 1: 2.05e6
- Renilla control light, replicate 2: 1.93e6
- call: inactive

Trpm (GeneID 36694) [DRSC27597]
- firefly reporter light, replicate 1: 1.90e5
- firefly reporter light, replicate 2: 2.50e5
- Renilla control light, replicate 1: 3.36e5
- Renilla control light, replicate 2: 4.56e5
- call: inactive

Trpm (GeneID 36694) [DRSC29042]
- firefly reporter light, replicate 1: 8.38e5
- firefly reporter light, replicate 2: 4.41e5
- Renilla control light, replicate 1: 2.08e6
- Renilla control light, replicate 2: 1.38e6
- call: inactive

CG7963 (GeneID 41001) [DRSC16355]
- firefly reporter light, replicate 1: 94073
- firefly reporter light, replicate 2: 55577
- Renilla control light, replicate 1: 2.18e6
- Renilla control light, replicate 2: 1.44e6
- call: inactive

Poxn (GeneID 36741) [DRSC05589]
- firefly reporter light, replicate 1: 1.06e5
- firefly reporter light, replicate 2: 1.53e5
- Renilla control light, replicate 1: 2.02e5
- Renilla control light, replicate 2: 3.11e5
- call: inactive

Poxn (GeneID 36741) [DRSC07512]
- firefly reporter light, replicate 1: 78835
- firefly reporter light, replicate 2: 1.11e5
- Renilla control light, replicate 1: 1.83e6
- Renilla control light, replicate 2: 1.83e6
- call: inactive

Poxn (GeneID 36741) [DRSC23830]
- firefly reporter light, replicate 1: 4.11e5
- firefly reporter light, replicate 2: 4.02e5
- Renilla control light, replicate 1: 6.63e5
- Renilla control light, replicate 2: 6.50e5
- call: inactive

Vps20 (GeneID 37581) [DRSC04448]
- firefly reporter light, replicate 1: 1.52e5
- firefly reporter light, replicate 2: 1.52e5
- Renilla control light, replicate 1: 1.61e6
- Renilla control light, replicate 2: 1.66e6
- call: active

As entered above:
CG7963 (GeneID 41001) [DRSC16355], firefly reporter light, replicate 2 → 55577
For “call”, CG8958 (GeneID 32575) [DRSC29479] is entered as inactive
Under “Renilla control light, replicate 2”, Trpm (GeneID 36694) [DRSC06629] reads 2.21e6

The listing continues:
CG13511 (GeneID 37597) [DRSC04153]
- firefly reporter light, replicate 1: 2.59e5
- firefly reporter light, replicate 2: 2.41e5
- Renilla control light, replicate 1: 1.81e6
- Renilla control light, replicate 2: 1.62e6
- call: inactive

CG13511 (GeneID 37597) [DRSC29026]
- firefly reporter light, replicate 1: 5.24e5
- firefly reporter light, replicate 2: 5.14e5
- Renilla control light, replicate 1: 1.45e6
- Renilla control light, replicate 2: 1.39e6
- call: inactive

CG3528 (GeneID 33436) [DRSC00611]
- firefly reporter light, replicate 1: 60964
- firefly reporter light, replicate 2: 42275
- Renilla control light, replicate 1: 5.51e5
- Renilla control light, replicate 2: 4.04e5
- call: inactive

CG3528 (GeneID 33436) [DRSC26034]
- firefly reporter light, replicate 1: 3.11e5
- firefly reporter light, replicate 2: 3.21e5
- Renilla control light, replicate 1: 6.10e5
- Renilla control light, replicate 2: 6.12e5
- call: inactive

Ir93a (GeneID 42471) [DRSC15212]
- firefly reporter light, replicate 1: 58776
- firefly reporter light, replicate 2: 70913
- Renilla control light, replicate 1: 5.58e5
- Renilla control light, replicate 2: 5.87e5
- call: inactive

Ir93a (GeneID 42471) [DRSC15213]
- firefly reporter light, replicate 1: 2.56e5
- firefly reporter light, replicate 2: 3.15e5
- Renilla control light, replicate 1: 3.00e6
- Renilla control light, replicate 2: 3.53e6
- call: inactive

Ir93a (GeneID 42471) [DRSC28149]
- firefly reporter light, replicate 1: 7.54e5
- firefly reporter light, replicate 2: 5.08e5
- Renilla control light, replicate 1: 1.45e6
- Renilla control light, replicate 2: 1.23e6
- call: inactive

Etfb (GeneID 43515) [DRSC16324]
- firefly reporter light, replicate 1: 85505
- firefly reporter light, replicate 2: 1.18e5
- Renilla control light, replicate 1: 1.13e6
- Renilla control light, replicate 2: 8.61e5
- call: inactive

CG30487 (GeneID 246646) [DRSC05377]
- firefly reporter light, replicate 1: 1.10e5
- firefly reporter light, replicate 2: 1.36e5
- Renilla control light, replicate 1: 1.96e5
- Renilla control light, replicate 2: 2.94e5
- call: inactive

Tom70 (GeneID 34618) [DRSC02990]
- firefly reporter light, replicate 1: 3.75e5
- firefly reporter light, replicate 2: 4.63e5
- Renilla control light, replicate 1: 2.39e6
- Renilla control light, replicate 2: 1.91e6
- call: inactive

E5 (GeneID 45396) [DRSC13000]
- firefly reporter light, replicate 1: 10827
- firefly reporter light, replicate 2: 13271
- Renilla control light, replicate 1: 67334
- Renilla control light, replicate 2: 85147
- call: inactive

E5 (GeneID 45396) [DRSC23157]
- firefly reporter light, replicate 1: 8.15e5
- firefly reporter light, replicate 2: 8.15e5
- Renilla control light, replicate 1: 1.54e6
- Renilla control light, replicate 2: 1.66e6
- call: inactive

E5 (GeneID 45396) [DRSC28326]
- firefly reporter light, replicate 1: 3.32e5
- firefly reporter light, replicate 2: 5.34e5
- Renilla control light, replicate 1: 8.89e5
- Renilla control light, replicate 2: 1.96e6
- call: inactive
